Assay [1] relates to hAMSC donor 1. Nature of the assay: Hoechst total cell count ratio vs vehicle control; higher = more cells (less toxicity).
The subject of assay [2] is hAMSC donor 2. Described as above.
For assay [3], the system named is hAMSC donor 1. Kind of assay: transgenic luciferase activity (RLU/mg protein) fold change vs vehicle control (ratio); higher = more transgene expression.
The test system of assay [4] is hAMSC donor 2. Described as above.
Assay [5] relates to hAMSC donor 1. Nature of the assay: transfection efficiency (EGFP+ cells / Hoechst count) fold change vs vehicle control (ratio); hAMSC are human adipose-derived mesenchymal stem cells given an EGFP-luciferase plasmid by lipofection; higher = enhanced transfection.
The test system of assay [6] is hAMSC donor 2. The assay is described as above.
Setting [7] is: priming compound concentration 0.2 µM.
The mark [8] stands for this setting: priming compound concentration 1.7 µM.
The mark [9] stands for this setting: priming compound concentration 13 µM.

Counter-ions that a name gives are not always drawn. ± gives the standard deviation of the averaged measurements. Some of the results follow. The data scatter; read single values as rough.

The values that follow come from the supplement of paper PMC7238544.

In the case of `O=C1CCc2cc(OCCCCc3nnnn3C3CCCCC3)ccc2N1` [Cilostazol], the “Hoechst total cell count ratio” value amounted to 1.06 ± 0.066 in the assay on hAMSC donor 1 [1] (setting [7]); 1.25 ± 0.037 in the assay with hAMSC donor 1 [1] (setting [8]); 1.25 ± 0.074 with hAMSC donor 1 [1] (setting [9]); 1.07 ± 0.061 with hAMSC donor 2 [2] (setting [7]); 1.15 ± 0.064 with hAMSC donor 2 [2] (setting [8]); 1.52 ± 0.044 in the assay with hAMSC donor 2 [2] (setting [9]). In addition, the transgenic luciferase activity in the assay on hAMSC donor 1 [3] (setting [8]) is 0.212 ± 0.014; with hAMSC donor 1 [3] (setting [9]), 0.968 ± 0.44; in the assay with hAMSC donor 2 [4] (setting [7]) it was 1.06 ± 0.15; in the assay with hAMSC donor 2 [4] (setting [8]), 0.862 ± 0.19; in the assay with hAMSC donor 2 [4] (setting [9]) it was 0.494 ± 0.076. Also, the transfection efficiency in the assay with hAMSC donor 1 [5] (setting [7]) came to 1.82 ± 0.38; with hAMSC donor 1 [5] (setting [8]), 1.29 ± 0.14; in the assay with hAMSC donor 1 [5] (setting [9]), 0.574 ± 0.071; in the assay with hAMSC donor 2 [6] (setting [7]), 1.37 ± 0.14; with hAMSC donor 2 [6] (setting [8]), 0.939 ± 0.024; in the assay on hAMSC donor 2 [6] (setting [9]), 0.683 ± 0.067.

On to `CC(=O)OCC(=O)[C@@]1(O)CC[C@H]2[C@@H]3CCC4=CC(=O)CC[C@]4(C)[C@H]3C(=O)C[C@@]21C` [Cortisone acetate], for which the “Hoechst total cell count ratio” value in the assay on hAMSC donor 1 [1] (setting [7]) was 1.35 ± 0.093; in the assay with hAMSC donor 1 [1] (setting [8]), 1.59 ± 0.27; with hAMSC donor 1 [1] (setting [9]), 1.14 ± 0.22; with hAMSC donor 2 [2] (setting [7]) it was 1.19 ± 0.058; with hAMSC donor 2 [2] (setting [8]), 0.959 ± 0.043; in the assay with hAMSC donor 2 [2] (setting [9]), 0.791 ± 0.13. Further, the transgenic luciferase activity amounted to 0.783 ± 0.54 in the assay on hAMSC donor 1 [3] (setting [7]), 0.778 ± 0.098 in the assay with hAMSC donor 1 [3] (setting [8]), 0.492 ± 0.08 in the assay with hAMSC donor 2 [4] (setting [8]) and 0.389 ± 0.12 in the assay with hAMSC donor 2 [4] (setting [9]). Besides, the transfection efficiency with hAMSC donor 1 [5] (setting [7]) was 0.959 ± 0.28; in the assay on hAMSC donor 1 [5] (setting [8]), 1.19 ± 0.045; in the assay with hAMSC donor 1 [5] (setting [9]), 0.958 ± 0.19; in the assay with hAMSC donor 2 [6] (setting [7]) it was 0.833 ± 0.12; with hAMSC donor 2 [6] (setting [8]) it was 1.44 ± 0.23; in the assay with hAMSC donor 2 [6] (setting [9]) it was 1.37 ± 0.088.

For the molecule `CCN(CC)CCOC(=O)C1(C2CCCCC2)CCCCC1` [Dicyclomine hydrochloride], the “Hoechst total cell count ratio” value was found to be 1.24 ± 0.23 with hAMSC donor 1 [1] (setting [7]); 1.42 ± 0.12 in the assay on hAMSC donor 1 [1] (setting [8]); 1.21 ± 0.18 in the assay with hAMSC donor 1 [1] (setting [9]); 1.17 ± 0.15 in the assay on hAMSC donor 2 [2] (setting [7]); 0.849 ± 0.1 in the assay with hAMSC donor 2 [2] (setting [8]); 1.21 ± 0.18 in the assay with hAMSC donor 2 [2] (setting [9]). In addition, the transgenic luciferase activity in the assay on hAMSC donor 1 [3] (setting [7]) was 0.653 ± 0.36; in the assay on hAMSC donor 1 [3] (setting [9]), 5.75 ± 1.6; in the assay on hAMSC donor 2 [4] (setting [7]) it was 0.693 ± 0.15; in the assay with hAMSC donor 2 [4] (setting [8]) it was 0.499 ± 0.14. Moreover, the transfection efficiency in the assay with hAMSC donor 1 [5] (setting [7]) was found to be 1.45 ± 0.42; in the assay with hAMSC donor 1 [5] (setting [8]), 0.985 ± 0.15; with hAMSC donor 1 [5] (setting [9]), 1.08 ± 0.23; in the assay on hAMSC donor 2 [6] (setting [7]), 0.861 ± 0.017; with hAMSC donor 2 [6] (setting [8]), 1.33 ± 0.22; in the assay on hAMSC donor 2 [6] (setting [9]), 0.984 ± 0.17.

Regarding `COc1ccc(Cl)cc1C(=O)NCCc1ccc(S(=O)(=O)NC(=O)NC2CCCCC2)cc1` [Glyburide], the “Hoechst total cell count ratio” value with hAMSC donor 1 [1] (setting [7]) was 1.13 ± 0.2; in the assay on hAMSC donor 1 [1] (setting [8]), 1.15 ± 0.08; in the assay with hAMSC donor 1 [1] (setting [9]), 1.38 ± 0.14; with hAMSC donor 2 [2] (setting [7]), 1.1 ± 0.057; in the assay with hAMSC donor 2 [2] (setting [8]), 1.42 ± 0.053; in the assay with hAMSC donor 2 [2] (setting [9]), 1.12 ± 0.28. Also, the transgenic luciferase activity came to 0.452 ± 0.13 in the assay on hAMSC donor 1 [3] (setting [7]); 1.83 ± 0.73 in the assay on hAMSC donor 1 [3] (setting [8]); 0.871 ± 0.51 with hAMSC donor 2 [4] (setting [7]); 0.718 ± 0.087 in the assay with hAMSC donor 2 [4] (setting [8]); 0.861 ± 0.032 in the assay with hAMSC donor 2 [4] (setting [9]). The transfection efficiency is 1.08 ± 0.18 in the assay with hAMSC donor 1 [5] (setting [7]); 1.17 ± 0.19 in the assay with hAMSC donor 1 [5] (setting [8]); 1.12 ± 0.14 in the assay on hAMSC donor 1 [5] (setting [9]); 1.1 ± 0.2 in the assay on hAMSC donor 2 [6] (setting [7]); 0.901 ± 0.035 in the assay on hAMSC donor 2 [6] (setting [8]); 1.12 ± 0.4 in the assay with hAMSC donor 2 [6] (setting [9]).

On to `C[C@@H]1C[C@H]2[C@@H]3CCC4=CC(=O)C=C[C@]4(C)[C@@]3(F)[C@@H](O)C[C@]2(C)[C@@]1(O)C(=O)COP(=O)(O)O` [Dexamethasone sodium phosphate], for which the “Hoechst total cell count ratio” value was found to be 1.28 ± 0.12 with hAMSC donor 1 [1] (setting [7]); 1.29 ± 0.16 in the assay with hAMSC donor 1 [1] (setting [8]); 1.17 ± 0.14 in the assay on hAMSC donor 1 [1] (setting [9]); 1.31 ± 0.4 in the assay on hAMSC donor 2 [2] (setting [7]); 0.958 ± 0.031 in the assay on hAMSC donor 2 [2] (setting [8]); 1.07 ± 0.056 in the assay with hAMSC donor 2 [2] (setting [9]). Moreover, the transgenic luciferase activity in the assay on hAMSC donor 1 [3] (setting [8]) turned out to be 1.31 ± 0.13; with hAMSC donor 1 [3] (setting [9]), 11.1 ± 2.9; in the assay on hAMSC donor 2 [4] (setting [7]), 2.48 ± 0.89; in the assay on hAMSC donor 2 [4] (setting [8]), 4.0071 ± 0.0027; in the assay on hAMSC donor 2 [4] (setting [9]), 3.71 ± 0.47. The transfection efficiency in the assay on hAMSC donor 1 [5] (setting [7]) was 1.01 ± 0.15; in the assay on hAMSC donor 1 [5] (setting [8]), 2.54 ± 0.63; in the assay on hAMSC donor 1 [5] (setting [9]) it was 2.56 ± 0.54; with hAMSC donor 2 [6] (setting [7]), 1.5 ± 0.31; in the assay with hAMSC donor 2 [6] (setting [8]), 2.21 ± 0.076; in the assay on hAMSC donor 2 [6] (setting [9]), 1.93 ± 0.22.

In the case of `C[C@]12CCC(=O)C=C1CC[C@@H]1[C@@H]2[C@@H](O)C[C@@]2(C)[C@H]1CC[C@]2(O)C(=O)CO` [Hydrocortisone], the “Hoechst total cell count ratio” value with hAMSC donor 1 [1] (setting [7]) was 1.48 ± 0.14; in the assay on hAMSC donor 1 [1] (setting [8]), 1.3 ± 0.13; with hAMSC donor 1 [1] (setting [9]), 1.47 ± 0.091; with hAMSC donor 2 [2] (setting [7]) it was 1.21 ± 0.075; with hAMSC donor 2 [2] (setting [8]), 1.21 ± 0.065; in the assay on hAMSC donor 2 [2] (setting [9]) it was 1.3 ± 0.082. Further, the transgenic luciferase activity stood at 1.79 ± 1.3 with hAMSC donor 1 [3] (setting [8]); 3.64 ± 0.24 in the assay on hAMSC donor 1 [3] (setting [9]); 1.11 ± 0.19 in the assay with hAMSC donor 2 [4] (setting [7]); 1.84 ± 0.26 in the assay on hAMSC donor 2 [4] (setting [8]); 2.28 ± 0.23 in the assay with hAMSC donor 2 [4] (setting [9]). Also, the transfection efficiency amounted to 0.964 ± 0.34 with hAMSC donor 1 [5] (setting [7]); 1.37 ± 0.3 with hAMSC donor 1 [5] (setting [8]); 1.44 ± 0.21 in the assay on hAMSC donor 1 [5] (setting [9]); 0.977 ± 0.073 in the assay with hAMSC donor 2 [6] (setting [7]); 1.346 ± 0.012 in the assay with hAMSC donor 2 [6] (setting [8]); 1.34 ± 0.1 with hAMSC donor 2 [6] (setting [9]).
